For assay [1], the target named is PfGRP170-GFP-DDD (P. falciparum). Kind of assay: affinity purification with mass spectrometry.
Assay [2] has as its target PfGRP170-HA-BirA (P. falciparum). Kind of assay: proximity labelling.

Results are given in words; binding and its absence hold for the method and conditions named. Binding seen in cells or lysates may run through a third protein. Here binding means that the protein was enriched with, or labelled near, the bait; the list need not be complete.

B1: SERA6 (protein, UniProt Q9TY96 25-1031)
chain: NKVTVISHNNGHNDNLDVNKNGVISQENVFDTSESLNLPSNKKVGSDDLNTTTISFTVPDNLENEVKVVSSSESGKGATVSHTKVTSEGLSDTQPNVTQSVSSSTHTPGSLDSTMSTEQHSSVSQSSLPTESSSETLNKATVPEIPIQINSGLLKNYNGVKVTGSCGSYFRVYLVPHILIYALTKYSVIQLESLFNDNARIDVEHKGELQNKCSEGYHFKLVVYITHNVLNLKWKTYKPNEESKSEDSDVRKYRIPKLERPFTSIQVYTANSKAGVIETKNYNIRTDIPDTCDAIATDCFLNGNVNIEKCFQCTLLVQKKDKSHECFKYVSSEMKKKMNEIKVKAQDDFNPNEYKLIESIDNILSKIYKKANKPFEISKDLINLEDLDYQFKNELLEYCKLLKKVDTSGTLEEYELGNAEDIYNNLTRLLKSHSDENIVTLQGKLRNTAICIKNVDEWILNKRGLTLPSESPSESSSKSDSYLNTFNDKDKNEDKDDMSKNSKEEFKNDDKENSDDQNNNDSNKKDDENNINNGDTNYVYDFDDDDYDNNSYEKDMYESPIKENKNGVIDLEKYGNQIKLKSPYFKNSKYCNYEYCNRWRDKTSCISQIEVEEQGNCGLCWIFASKLHFETIRCMRGYGHFRSSALYVANCSKRKPIDRCEEGSNPLEFLRILDEKKFLPLESNYPYSYTSAGNSCPKLPNSWTNLWGDTKLLFNKKVHRYIGNKGFISHETSYFKNNMDLFIDMVKREVQNKGSVIIYIKTQDVIGYDFNGKGVHSMCGDRTPDHAANIIGYGNYINKKGEKRSYWLIRNSWSYYWGDEGNFRVDMLGPKNCLYNFIHTVVFFKLDLGTIHVPKKKSWKKNVYFLRHNPDFMYSLYYNNYEPETSQDFESENDYDNAFVHGQSNESDETNKEGKNVHNSVEKKIQILHILKHIKDSQIKRGLVKYDNINETKDEHTCSRVNSQDAEKYEECKKFCLTKWNECKDHYSPGYCLTDLYKGEDCNFCYV
As for B1, the binding entry in assay [1] and in assay [2] was “binds” each time.
